Experimental data published in article PMC7746861, “Acetate Metabolism in Archaea: Characterization of an Acetate Transporter and of Enzymes Involved in Acetate Activation and Gluconeogenesis in Haloferax volcanii” (Frontiers in Microbiology, 2020).
Results are given in words; binding and its absence hold for the method and conditions named.

Target: AMP-forming acetyl-CoA synthetase ACS7 from Haloferax volcanii, recombinant (Haloferax volcanii) (UniProt D4GQI5)
Experiment: SEC; Superdex 200 HiLoad column (1.6 x 60 cm), flow rate 1 ml per min, calibrated with HMW and LMW kits (GE Healthcare); native mass compared with the subunit mass by SDS-PAGE; 50 mM Tris-HCl, pH 7.5, 1.5 M KCl; both purified

binding: no binding
B1: AMP-forming acetyl-CoA synthetase ACS7 from Haloferax volcanii, recombinant (enzyme, UniProt D4GQI5 1-664)
chain: MAQGDAELEARLAEQDEFEPTEEFVAQANVSDAGIYDEFEENWPDCWERAADLLDWDADYDEVLDDSNPPFYEWFTGGELNACYNCVDRHVENGDKNRVAIKWEGEHGETRTYTYQDLYREVNEFAAALRDLGVEEDDVVTLYMPMVPELPIAMLACARIGAPHNVVFAGFSAEALATRMNAADSRFLVTCDGYYRRGDPLDHLDKTNEGLDSVDHGVDATVVVDRLGDDGFDHDLKGNQHDWDDLLEAQSGERVAPVERDAEDMLFLMYTSGTTGQPKGVKHTTGGYLSYATWTSHAVLDIETEDTYWCSADIGWITGHSYIVYGPLALGSTTVMYEGTPDFPNRDRMWELVEKYAVDIFYTAPTAIRAFMKWGSKYPESRDLSSLRLLGTVGEPINPRAWKWYYEHIGNENCPVVDTWWQTETGGMMITTLPGVKNMKPGSAGPPLPGIDAQIVDTDGDEVEPGRAGYLTVNKPWPGMLRTLYDNDERYISEYWAEYSDTDSDDPDDWVYFPEDGAKVDEDGYITVLGRVDDVINVSGHRLGTMEIESAIVGVEGVAEAAVVGGNHEVKGEAVYAYVITEDGYEEGEDLRARIVEGVEDAIGPIARPEQVVFTPELPKTRSGKIMRRLLEDVANGAELGNTSTLRNPEIVGEIEAKVRAQSD
